The list shows a part of the results. Residues, ends and D or L forms follow the SMILES beside them. *: point of attachment. Cbz = O=C(OCc1ccccc1)*
Legend:
Assay in all cases: log2 fold change, soluble protein after heating vs DMSO (PISA); higher = thermal stabilisation; K562 cells, 10 uM, 30 min; active = over 0.2 and 3.5 SD of the protein, either way, in both replicates (recomputed)
erlotinib = compound: C#Cc1cccc(Nc2ncnc3cc(OCCOC)c(OCCOC)cc23)c1 [erlotinib]
Method in brief: (§1)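 Aliquots of K562 cells (2×10^6 cells/mL) treated with 10 μM compound for 30 min were heated for 3 min over 48°C-58°C. After pooling and extraction in PBS with 0.5% NP-40 at 4°C, soluble protein from a 21,000xg, 90 min spin was quantified by TMTpro 16plex LC-MS/MS with channel sums equalised. Thermal stability is expressed against control samples, from duplicates, as a log2 fold change.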

The chains behind the UniProt entries cited, without tags or fusion partners. Where a name states a change or a piece, a line headed by the entry shows the natural chain unless it says otherwise.
UniProt O14773: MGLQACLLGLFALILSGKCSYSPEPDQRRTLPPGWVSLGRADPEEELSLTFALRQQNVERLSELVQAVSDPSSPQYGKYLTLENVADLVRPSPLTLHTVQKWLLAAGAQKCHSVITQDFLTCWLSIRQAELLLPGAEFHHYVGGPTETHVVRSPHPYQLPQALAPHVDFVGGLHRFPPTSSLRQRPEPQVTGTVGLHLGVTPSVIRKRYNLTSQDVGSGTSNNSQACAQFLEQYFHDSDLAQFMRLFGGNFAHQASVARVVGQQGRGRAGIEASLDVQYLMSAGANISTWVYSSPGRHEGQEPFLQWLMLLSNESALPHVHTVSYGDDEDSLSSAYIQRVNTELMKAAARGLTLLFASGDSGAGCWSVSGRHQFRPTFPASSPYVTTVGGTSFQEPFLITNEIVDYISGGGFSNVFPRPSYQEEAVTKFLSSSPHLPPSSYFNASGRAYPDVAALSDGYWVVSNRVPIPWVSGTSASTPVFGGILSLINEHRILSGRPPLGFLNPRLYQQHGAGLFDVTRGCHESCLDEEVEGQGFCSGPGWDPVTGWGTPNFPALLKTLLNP
UniProt Q96GJ1: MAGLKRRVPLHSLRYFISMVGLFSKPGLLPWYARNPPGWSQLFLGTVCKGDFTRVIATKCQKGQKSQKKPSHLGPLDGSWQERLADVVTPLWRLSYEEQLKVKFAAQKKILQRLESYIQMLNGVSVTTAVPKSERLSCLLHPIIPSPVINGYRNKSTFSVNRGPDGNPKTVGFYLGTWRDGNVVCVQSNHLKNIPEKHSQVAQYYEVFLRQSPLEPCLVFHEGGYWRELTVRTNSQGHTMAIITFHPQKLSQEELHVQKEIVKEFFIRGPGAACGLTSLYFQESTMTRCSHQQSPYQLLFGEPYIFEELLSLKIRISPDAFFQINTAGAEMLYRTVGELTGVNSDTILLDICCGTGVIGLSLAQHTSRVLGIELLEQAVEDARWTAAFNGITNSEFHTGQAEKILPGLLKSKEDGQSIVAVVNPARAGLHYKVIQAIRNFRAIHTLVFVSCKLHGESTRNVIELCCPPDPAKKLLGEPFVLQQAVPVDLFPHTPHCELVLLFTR
UniProt Q8NCE0: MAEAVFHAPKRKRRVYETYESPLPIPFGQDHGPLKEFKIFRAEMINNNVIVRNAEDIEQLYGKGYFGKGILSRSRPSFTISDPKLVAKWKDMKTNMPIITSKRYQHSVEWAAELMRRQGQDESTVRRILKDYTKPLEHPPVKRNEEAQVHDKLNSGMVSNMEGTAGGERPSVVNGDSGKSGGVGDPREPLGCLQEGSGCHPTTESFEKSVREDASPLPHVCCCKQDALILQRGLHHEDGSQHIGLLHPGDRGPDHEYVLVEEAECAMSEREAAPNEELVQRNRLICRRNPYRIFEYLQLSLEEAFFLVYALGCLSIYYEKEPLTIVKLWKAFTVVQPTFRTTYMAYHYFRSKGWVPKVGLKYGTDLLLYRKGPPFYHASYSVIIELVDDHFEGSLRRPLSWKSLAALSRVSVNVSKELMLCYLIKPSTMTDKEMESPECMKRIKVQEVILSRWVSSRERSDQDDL
UniProt Q9Y2L5: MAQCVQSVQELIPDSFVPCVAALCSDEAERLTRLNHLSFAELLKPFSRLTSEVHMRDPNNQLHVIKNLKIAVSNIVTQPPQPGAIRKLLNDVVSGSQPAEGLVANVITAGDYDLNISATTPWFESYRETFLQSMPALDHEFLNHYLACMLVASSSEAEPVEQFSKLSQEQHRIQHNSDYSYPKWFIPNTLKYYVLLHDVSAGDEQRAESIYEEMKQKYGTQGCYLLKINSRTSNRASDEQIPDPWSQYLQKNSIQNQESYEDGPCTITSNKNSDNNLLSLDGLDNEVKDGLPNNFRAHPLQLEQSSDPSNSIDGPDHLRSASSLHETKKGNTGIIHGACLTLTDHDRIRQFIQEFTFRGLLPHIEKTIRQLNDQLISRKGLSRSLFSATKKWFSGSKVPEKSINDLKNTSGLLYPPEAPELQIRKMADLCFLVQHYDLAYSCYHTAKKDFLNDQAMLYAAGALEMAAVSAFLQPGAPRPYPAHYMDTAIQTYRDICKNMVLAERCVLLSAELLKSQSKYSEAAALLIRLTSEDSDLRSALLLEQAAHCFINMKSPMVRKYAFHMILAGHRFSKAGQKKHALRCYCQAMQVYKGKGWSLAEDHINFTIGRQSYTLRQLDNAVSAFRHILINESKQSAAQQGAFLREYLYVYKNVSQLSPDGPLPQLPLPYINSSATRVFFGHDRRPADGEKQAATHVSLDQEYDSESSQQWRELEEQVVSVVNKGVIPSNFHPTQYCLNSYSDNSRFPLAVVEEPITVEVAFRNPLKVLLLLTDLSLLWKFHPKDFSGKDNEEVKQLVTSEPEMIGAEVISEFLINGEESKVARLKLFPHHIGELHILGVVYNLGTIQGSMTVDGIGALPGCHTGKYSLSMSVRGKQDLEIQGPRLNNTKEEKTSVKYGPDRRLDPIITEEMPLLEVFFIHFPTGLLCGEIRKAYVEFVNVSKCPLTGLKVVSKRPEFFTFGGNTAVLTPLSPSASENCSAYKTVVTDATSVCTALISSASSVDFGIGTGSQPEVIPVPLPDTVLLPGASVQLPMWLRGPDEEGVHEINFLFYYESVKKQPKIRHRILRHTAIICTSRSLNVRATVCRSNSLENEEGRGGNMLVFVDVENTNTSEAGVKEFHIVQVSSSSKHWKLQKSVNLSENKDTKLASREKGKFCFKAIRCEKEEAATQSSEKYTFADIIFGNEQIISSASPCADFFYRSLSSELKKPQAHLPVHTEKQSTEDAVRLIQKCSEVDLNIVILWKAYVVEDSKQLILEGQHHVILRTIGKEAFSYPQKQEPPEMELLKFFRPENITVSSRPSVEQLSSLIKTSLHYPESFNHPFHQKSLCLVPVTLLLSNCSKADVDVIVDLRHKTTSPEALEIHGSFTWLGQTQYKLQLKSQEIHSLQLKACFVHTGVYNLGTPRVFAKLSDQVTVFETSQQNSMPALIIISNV
UniProt O00635: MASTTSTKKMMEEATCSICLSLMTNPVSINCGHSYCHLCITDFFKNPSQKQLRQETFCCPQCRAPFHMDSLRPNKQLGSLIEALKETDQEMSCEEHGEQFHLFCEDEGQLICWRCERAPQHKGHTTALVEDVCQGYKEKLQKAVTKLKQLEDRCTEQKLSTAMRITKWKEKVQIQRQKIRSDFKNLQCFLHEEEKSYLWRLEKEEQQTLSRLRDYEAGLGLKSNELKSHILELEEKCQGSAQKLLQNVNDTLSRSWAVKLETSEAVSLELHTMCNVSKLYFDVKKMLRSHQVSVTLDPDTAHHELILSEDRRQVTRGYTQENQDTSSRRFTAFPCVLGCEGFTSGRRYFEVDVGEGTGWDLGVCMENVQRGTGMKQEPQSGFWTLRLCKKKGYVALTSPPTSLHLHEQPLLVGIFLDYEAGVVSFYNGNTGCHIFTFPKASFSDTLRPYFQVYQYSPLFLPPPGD
UniProt Q8IZ69: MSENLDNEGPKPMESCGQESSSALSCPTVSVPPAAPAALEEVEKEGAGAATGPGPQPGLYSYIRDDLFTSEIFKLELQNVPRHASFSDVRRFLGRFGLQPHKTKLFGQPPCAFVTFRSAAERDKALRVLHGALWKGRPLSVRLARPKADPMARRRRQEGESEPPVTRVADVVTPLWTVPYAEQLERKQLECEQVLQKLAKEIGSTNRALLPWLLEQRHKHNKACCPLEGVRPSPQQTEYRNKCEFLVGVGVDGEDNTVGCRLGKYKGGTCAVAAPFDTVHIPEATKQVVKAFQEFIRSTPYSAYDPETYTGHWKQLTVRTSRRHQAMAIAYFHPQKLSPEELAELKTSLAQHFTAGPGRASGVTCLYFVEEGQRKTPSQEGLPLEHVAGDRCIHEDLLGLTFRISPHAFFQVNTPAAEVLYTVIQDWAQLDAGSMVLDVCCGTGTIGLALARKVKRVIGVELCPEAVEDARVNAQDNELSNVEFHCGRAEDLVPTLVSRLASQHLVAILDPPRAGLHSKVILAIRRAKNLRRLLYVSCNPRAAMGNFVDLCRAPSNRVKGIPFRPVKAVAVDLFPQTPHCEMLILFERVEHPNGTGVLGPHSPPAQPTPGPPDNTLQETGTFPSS
UniProt P11388: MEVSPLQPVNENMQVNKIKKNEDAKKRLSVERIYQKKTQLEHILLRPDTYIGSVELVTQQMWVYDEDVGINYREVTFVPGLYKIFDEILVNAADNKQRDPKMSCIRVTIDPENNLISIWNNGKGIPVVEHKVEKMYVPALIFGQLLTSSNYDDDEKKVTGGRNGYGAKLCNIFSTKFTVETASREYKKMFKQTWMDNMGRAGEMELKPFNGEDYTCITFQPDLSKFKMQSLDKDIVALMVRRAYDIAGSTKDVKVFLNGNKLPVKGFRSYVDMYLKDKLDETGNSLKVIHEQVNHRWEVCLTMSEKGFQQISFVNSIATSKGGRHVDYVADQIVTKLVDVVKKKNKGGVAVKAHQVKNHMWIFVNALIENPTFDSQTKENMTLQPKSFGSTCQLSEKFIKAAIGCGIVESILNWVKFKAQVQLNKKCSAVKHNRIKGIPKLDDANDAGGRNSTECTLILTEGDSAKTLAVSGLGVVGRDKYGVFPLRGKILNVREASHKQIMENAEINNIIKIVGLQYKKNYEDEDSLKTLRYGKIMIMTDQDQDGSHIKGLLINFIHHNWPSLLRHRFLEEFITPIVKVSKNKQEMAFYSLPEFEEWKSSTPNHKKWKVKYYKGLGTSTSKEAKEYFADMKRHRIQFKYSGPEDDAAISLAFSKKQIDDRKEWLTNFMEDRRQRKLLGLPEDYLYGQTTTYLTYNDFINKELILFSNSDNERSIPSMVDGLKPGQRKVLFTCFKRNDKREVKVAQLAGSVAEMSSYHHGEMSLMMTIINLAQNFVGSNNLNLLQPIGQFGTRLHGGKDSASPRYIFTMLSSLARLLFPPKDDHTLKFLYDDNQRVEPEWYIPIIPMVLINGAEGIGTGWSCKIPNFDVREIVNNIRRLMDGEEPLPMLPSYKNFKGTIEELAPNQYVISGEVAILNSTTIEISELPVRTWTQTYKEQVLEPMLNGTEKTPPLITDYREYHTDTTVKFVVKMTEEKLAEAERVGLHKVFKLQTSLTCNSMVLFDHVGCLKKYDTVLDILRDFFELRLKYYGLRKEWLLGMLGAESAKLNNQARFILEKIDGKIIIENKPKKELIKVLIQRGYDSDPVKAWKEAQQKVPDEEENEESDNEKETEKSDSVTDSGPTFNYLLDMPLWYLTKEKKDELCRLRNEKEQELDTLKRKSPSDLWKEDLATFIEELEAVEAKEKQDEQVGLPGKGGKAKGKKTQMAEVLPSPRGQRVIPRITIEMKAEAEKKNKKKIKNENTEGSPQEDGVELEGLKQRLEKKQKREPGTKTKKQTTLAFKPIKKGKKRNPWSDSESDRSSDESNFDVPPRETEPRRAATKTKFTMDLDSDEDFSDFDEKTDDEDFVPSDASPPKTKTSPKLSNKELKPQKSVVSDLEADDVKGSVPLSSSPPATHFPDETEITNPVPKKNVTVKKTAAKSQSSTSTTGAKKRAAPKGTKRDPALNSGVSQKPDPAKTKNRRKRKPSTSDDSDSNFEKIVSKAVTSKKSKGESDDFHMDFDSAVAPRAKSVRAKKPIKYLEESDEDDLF
UniProt Q15628: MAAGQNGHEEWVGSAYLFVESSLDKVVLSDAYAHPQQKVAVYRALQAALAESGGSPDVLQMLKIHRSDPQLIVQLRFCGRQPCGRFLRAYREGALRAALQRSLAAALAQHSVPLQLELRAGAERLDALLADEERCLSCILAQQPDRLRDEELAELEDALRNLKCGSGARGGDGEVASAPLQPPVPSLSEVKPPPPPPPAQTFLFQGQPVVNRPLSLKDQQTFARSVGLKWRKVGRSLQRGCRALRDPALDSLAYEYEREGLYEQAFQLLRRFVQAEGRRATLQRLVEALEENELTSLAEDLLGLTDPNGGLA
UniProt Q15629: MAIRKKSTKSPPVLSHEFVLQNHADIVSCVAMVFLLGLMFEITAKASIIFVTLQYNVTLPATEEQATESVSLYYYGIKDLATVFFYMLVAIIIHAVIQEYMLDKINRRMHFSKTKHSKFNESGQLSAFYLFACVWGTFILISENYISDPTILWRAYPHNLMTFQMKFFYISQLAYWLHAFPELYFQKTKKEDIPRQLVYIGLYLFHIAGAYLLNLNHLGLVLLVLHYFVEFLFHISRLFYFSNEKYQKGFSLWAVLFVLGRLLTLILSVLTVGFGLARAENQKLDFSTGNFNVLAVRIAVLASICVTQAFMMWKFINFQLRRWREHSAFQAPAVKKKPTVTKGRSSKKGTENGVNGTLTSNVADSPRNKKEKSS
UniProt Q96FX7: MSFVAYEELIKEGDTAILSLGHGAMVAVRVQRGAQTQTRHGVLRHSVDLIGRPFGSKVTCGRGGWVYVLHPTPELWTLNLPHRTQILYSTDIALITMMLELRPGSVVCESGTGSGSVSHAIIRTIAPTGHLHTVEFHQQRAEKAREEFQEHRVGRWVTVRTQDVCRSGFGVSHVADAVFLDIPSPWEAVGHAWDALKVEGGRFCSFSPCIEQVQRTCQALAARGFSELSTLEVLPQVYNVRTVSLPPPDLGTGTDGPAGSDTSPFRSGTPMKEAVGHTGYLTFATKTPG

[1] = compound: C/C(=N\NC(=O)C1=CC(=CC=C1)S(=O)(=O)N2CCOCC2)/C3=C(C=CC(=C3)Cl)O
Method in brief: as §1

[2] = compound: C1=CC(=C(C=C1Cl)C2=NC3=NC=CN=C3C(=N2)NC4=CC=NC=C4)F
Method in brief: as §1

[3] = compound: C1=CC(=CC=C1C2=NC3=C(N2)C=C(C=C3)C(=O)N)OC4=CC=C(C=C4)Cl
Method in brief: as §1

[4] = compound: C1=CC2=C(C=CC(=C2)/C=C\3/C(=O)NC(=NCC4=CC=CS4)S3)N=C1
Method in brief: as §1

[5] = compound: C1=CC2=NC=CN=C2C=C1/C=C/3\C(=O)NC(=O)S3
Method in brief: as §1

[6] = compound: C1=CC=C(C=C1)C2=NC(=C(N2)C3=CC=NC=C3)C4=CC(=C(C=C4)Cl)O
Method in brief: as §1

[7] = compound: C1=CC=C2C(=C1)C3=NNC4=CC=CC(=C43)C2=O
Method in brief: as §1

[8] = compound: C1CCN(C1)C(=O)NC2=CC=CC(=C2)NC3=NC=C(C(=N3)NCCC4=CN=CN4)Br
Method in brief: as §1

[9] = compound: C1CN(CCC1(CC2=CC=C(C=C2)Cl)N)C3=NC=NC4=C3C=CN4
Method in brief: as §1

IRAK-1-4 Inhibitor I = compound: C1COCCN1CCN2C3=CC=CC=C3N=C2NC(=O)C4=CC(=CC=C4)[N+](=O)[O-] [IRAK-1-4 Inhibitor I]
Method in brief: as §1

ibrutinib = compound: C=CC(=O)N1CCC[C@@H](n2nc(-c3ccc(Oc4ccccc4)cc3)c3c(N)ncnc32)C1 [ibrutinib]
Method in brief: as §1

[10] = compound: CC(=O)c1cnc2ccc(-c3cc(Cl)c(O)c(Cl)c3)nc2c1N[C@H]1CC[C@H](CN(C)C)CC1
Method in brief: as §1

ralimetinib = compound: CC(C)(C)Cn1c(N)nc2ccc(-c3[nH]c(C(C)(C)C)nc3-c3ccc(F)cc3)nc21 [ralimetinib]
Method in brief: as §1

[11] = compound: CC(C)(O)CC(=O)NCCn1ccc2ncnc(Nc3ccc(Oc4cccc(C(F)(F)F)c4)c(Cl)c3)c21
Method in brief: as §1

[12] = compound: CC(C)C1=C2N=C(C=C(N2N=C1)NCC3=CC=CC=C3)NCCCCCCN
Method in brief: as §1

[13] = compound: CC(C)C[C@@H](C=O)NC(=O)[C@H](CC(C)C)NC(=O)[C@H](CC(C)C)NC(=O)OCc1ccccc1
Method in brief: as §1

pinometostat = compound: CC(C)N(C[C@H]1O[C@@H](n2cnc3c(N)ncnc32)[C@H](O)[C@@H]1O)[C@H]1C[C@@H](CCc2nc3cc(C(C)(C)C)ccc3[nH]2)C1 [pinometostat]
Method in brief: as §1

[14] = compound: CC1=C(C2=C(C=C1)C(=O)C3=CC=CC=C3N2CCCN)C
Method in brief: as §1

[15] = compound: CC1=C(C(CC(=O)N1)C2=CC=C(C=C2)C(F)(F)F)C(=O)NC3=C(C=C4C(=C3)C=NN4)F
Method in brief: as §1

Row | Target | log2 fold change (erlotinib) | log2 fold change [1] | log2 fold change [2] | log2 fold change [3] | log2 fold change [4] | log2 fold change [5] | log2 fold change [6] | log2 fold change [7] | log2 fold change [8] | log2 fold change [9] | log2 fold change (IRAK-1-4 Inhibitor I) | log2 fold change (ibrutinib) | log2 fold change [10] | log2 fold change (ralimetinib) | log2 fold change [11] | log2 fold change [12] | log2 fold change [13] | log2 fold change (pinometostat) | log2 fold change [14] | log2 fold change [15]
1 | TPP1 (UniProt O14773) | inactive: 0.013 | inactive: 0.009 | inactive: 0.059 | inactive: -0.015 | inactive: -0.007 | inactive: 0.024 | inactive: 0.034 | inactive: -0.014 | inactive: -0.012 | inactive: -0.017 | inactive: -0.007 | inactive: -0.01 | inactive: -0.006 | inactive: -0.025 | inactive: 0.059 | active: -0.492 | inactive: 0.043 | inactive: -0.052 | inactive: -0.009 | 
2 | TSC2 (UniProt P49815) | inactive: 0.276 | inactive: -0.047 | inactive: -0.104 | inactive: -0.297 | inactive: -0.025 | inactive: -0.135 | inactive: 0.06 | inactive: 0.063 | inactive: -0.001 | inactive: 0.199 | inactive: -0.045 | inactive: 0.028 | inactive: 0.05 | inactive: 0.091 | inactive: -0.001 | inactive: 0.103 | inactive: 0.056 | inactive: 0.085 | inactive: 0.105 | 
3 | TPRA1 (UniProt Q86W33) | inactive: -0.002 | inactive: 0.139 | inactive: -0.091 | inactive: 0.247 | inactive: 0.224 |  |  | inactive: 0.085 |  |  |  |  | inactive: 0.221 |  | inactive: 0.009 | inactive: -0.267 |  |  |  | inactive: 0.071
4 | TRMT2B (UniProt Q96GJ1) | inactive: 0.165 | inactive: -0.093 |  | inactive: 0.158 | inactive: 0.006 | inactive: 0.11 | inactive: -0.013 | inactive: 0.044 | inactive: 0.022 | inactive: 0.06 |  | inactive: 0.017 | inactive: -0.001 | inactive: -0.048 |  | inactive: -0.308 | inactive: 0.023 |  | inactive: -0.007 | inactive: 0.026
5 | TSEN2 (UniProt Q8NCE0) | inactive: 0.08 | inactive: -0.001 | inactive: -0.016 | inactive: 0.029 | inactive: 0.041 | inactive: 0.098 | inactive: 0.023 | inactive: 0.023 | inactive: -0.04 | inactive: 0.061 | inactive: 0.073 | inactive: -0.022 | inactive: -0.116 | inactive: -0.034 | inactive: -0.127 | inactive: 0.033 | inactive: -0.001 | inactive: 0.004 | inactive: 0.027 | 
6 | TOM1L1 (UniProt O75674) | inactive: 0.019 | inactive: -0.009 | inactive: -0.003 | inactive: 0.044 | inactive: -0.038 | inactive: 0.037 | inactive: -0.023 | inactive: -0.026 | inactive: 0.006 | inactive: 0.076 | inactive: 0.006 | inactive: -0.001 | inactive: -0.014 | inactive: -0.047 | inactive: -0.013 | inactive: 0.019 | inactive: 0.028 | inactive: -0.023 | inactive: -0.019 | 
7 | TRAPPC8 (UniProt Q9Y2L5) | inactive: 0.024 | inactive: 0.118 | inactive: -0.012 | inactive: 0.027 | inactive: 0.094 | inactive: -0.007 | inactive: -0.068 | inactive: -0.018 | inactive: -0.011 | inactive: -0.036 | inactive: -0.02 | inactive: 0.015 | inactive: -0.02 | inactive: 0.011 | inactive: -0.056 | inactive: -0.071 | inactive: 0.044 | inactive: 0.072 | inactive: 0.003 | 
8 | TRIP10 isoform 2 (UniProt Q15642) | inactive: -0.116 | inactive: -0.002 | inactive: 0.112 | inactive: 0.094 | inactive: -0.069 | inactive: 0.055 | inactive: 0.326 | inactive: 0.055 | inactive: -0.089 | inactive: 0.014 | inactive: 0.09 | inactive: -0.032 | inactive: -0.078 | inactive: 0.143 | inactive: 0.004 | inactive: 0.204 | inactive: -0.118 | inactive: -0.027 | inactive: -0.01 | 
9 | TRIM38 (UniProt O00635) | inactive: 0.126 | inactive: -0.068 | inactive: -0.053 | inactive: 0.027 | inactive: 0.108 | inactive: -0.072 |  | inactive: -0.143 |  |  | inactive: 0.037 | inactive: -0.016 | inactive: -0.089 |  | inactive: -0.02 | inactive: -0.072 |  | inactive: 0.037 |  | inactive: 0.079
10 | TRAPPC2 isoform 3 (UniProt P0DI81) | inactive: -0.024 | inactive: 0.107 |  | inactive: 0.041 | inactive: -0.046 | inactive: -0.053 | inactive: 0.001 | inactive: 0.045 | inactive: -0.103 | inactive: 0.123 |  | inactive: 0.01 | inactive: -0.122 | inactive: 0.031 |  | inactive: -0.046 | inactive: 0.161 |  | inactive: -0.15 | inactive: -0.144
11 | TRMT2A (UniProt Q8IZ69) | inactive: 0 | inactive: 0.069 | inactive: -0.124 | inactive: 0.07 | inactive: -0.016 | inactive: -0.009 | inactive: -0.026 | inactive: -0.09 | inactive: 0.031 | inactive: -0.011 | inactive: -0.028 | inactive: 0.005 | inactive: -0.098 | inactive: 0.039 | inactive: 0.013 | inactive: -0.146 | inactive: 0.034 | inactive: 0.085 | inactive: -0.142 | 
12 | TNPO1 (UniProt Q92973) | inactive: -0.032 | inactive: 0.08 | inactive: 0.038 | inactive: 0.011 | inactive: -0.006 | inactive: 0.016 | inactive: 0.008 | inactive: -0.027 | inactive: -0.001 | inactive: 0 | inactive: 0.01 | inactive: 0.001 | inactive: 0.043 | inactive: -0.01 | inactive: -0.029 | inactive: -0.193 | inactive: -0.011 | inactive: -0.006 | active: -0.231 | 
13 | TOP2A isoform 4 (UniProt P11388) | inactive: 0.008 | inactive: -0.124 | inactive: -0.429 | inactive: 0.094 | inactive: -0.061 | inactive: 0.23 | inactive: 0.077 | inactive: 0.053 | inactive: 0.073 | inactive: -0.219 | inactive: -0.145 | inactive: 0.116 | inactive: 0.154 | inactive: 0.324 | inactive: 0 | inactive: -0.125 | inactive: 0.261 | inactive: 0.533 | active: -0.968 | 
14 | TRADD (UniProt Q15628) | inactive: 0.143 | inactive: 0.023 | inactive: -0.109 | inactive: 0.001 | inactive: 0.063 |  | inactive: 0.002 | inactive: -0.054 |  |  |  |  | inactive: -0.007 | inactive: 0.043 | inactive: -0.156 | inactive: -0.316 | inactive: -0.246 |  |  | inactive: 0.029
15 | TRAM1 (UniProt Q15629) | inactive: 0.059 | inactive: 0.016 | inactive: -0.028 | inactive: -0.088 | inactive: 0.015 | inactive: 0.065 | inactive: 0.144 | inactive: -0.151 | inactive: 0.105 | inactive: 0 | inactive: -0.036 | inactive: -0.051 | inactive: -0.032 | inactive: -0.014 | inactive: -0.016 | active: -0.889 | inactive: 0.012 | inactive: -0.011 | inactive: 0.119 | 
16 | TRMT61A (UniProt Q96FX7) | inactive: -0.03 | inactive: -0.062 | active: -0.354 | inactive: 0.087 | inactive: -0.059 | inactive: -0.07 | inactive: -0.017 | inactive: -0.046 | inactive: 0.054 | inactive: 0.054 | inactive: 0.07 | inactive: 0.14 | inactive: -0.002 | inactive: 0.06 | inactive: 0.109 | inactive: -0.099 | inactive: 0.086 | inactive: 0.188 | inactive: -0.401 | 
17 | TOMM20 (UniProt Q15388) | inactive: 0.073 | inactive: -0.01 | inactive: -0.013 | inactive: 0.004 | inactive: 0.012 | inactive: 0.018 | inactive: 0.049 | inactive: -0.006 | inactive: 0.007 | inactive: 0.027 | inactive: 0.006 | inactive: 0 | inactive: 0.003 | inactive: -0.017 | inactive: 0.118 | active: -0.343 | inactive: 0.047 | inactive: 0.022 | inactive: 0.018 | 
18 | TRIM21 (UniProt P19474) | inactive: 0.041 | inactive: -0.047 |  | inactive: 0.214 | inactive: -0.076 | inactive: 0.111 |  | inactive: 0.213 | inactive: -0.038 | inactive: 0.013 |  | inactive: -0.238 | inactive: 0.044 |  |  | inactive: -0.147 |  |  | inactive: 0.129 | inactive: 0.106

Given as tab-separated lines: entries from further up
Row	Target	log2 fold change (erlotinib)	log2 fold change [1]	log2 fold change [2]	log2 fold change [3]	log2 fold change [4]	log2 fold change [5]	log2 fold change [6]	log2 fold change [7]	log2 fold change [8]	log2 fold change [9]	log2 fold change (IRAK-1-4 Inhibitor I)	log2 fold change (ibrutinib)	log2 fold change [10]	log2 fold change (ralimetinib)	log2 fold change [11]	log2 fold change [12]	log2 fold change [13]	log2 fold change (pinometostat)	log2 fold change [14]	log2 fold change [15]
5	TSEN2 (UniProt Q8NCE0)	inactive: 0.08	inactive: -0.001	inactive: -0.016	inactive: 0.029	inactive: 0.041	inactive: 0.098	inactive: 0.023	inactive: 0.023	inactive: -0.04	inactive: 0.061	inactive: 0.073	inactive: -0.022	inactive: -0.116	inactive: -0.034	inactive: -0.127	inactive: 0.033	inactive: -0.001	inactive: 0.004	inactive: 0.027	
6	TOM1L1 (UniProt O75674)	inactive: 0.019	inactive: -0.009	inactive: -0.003	inactive: 0.044	inactive: -0.038	inactive: 0.037	inactive: -0.023	inactive: -0.026	inactive: 0.006	inactive: 0.076	inactive: 0.006	inactive: -0.001	inactive: -0.014	inactive: -0.047	inactive: -0.013	inactive: 0.019	inactive: 0.028	inactive: -0.023	inactive: -0.019	
